Results deposited as PubChem BioAssay AID504791 (Drosophila RNAi Screening Center, 2011)
Screen: 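Genes whose knock-down strengthens or weakens small-RNA reporter silencing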 (primary screen). Cell system: Drosophila S2-derived reporter cells. Knock-down reagent: long dsRNA against Drosophila genes, about 150-250 ng dsRNA per well (siRNA assay); about 80-120 ng (miRNA assay). Timing: about 5 days (siRNA assay); about 4 days (miRNA assay). Challenge: copper sulfate induction of reporters: 25 µM (siRNA assay); 200 mM stated (miRNA assay), 1-2 days before reading. Detection: 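Per-well ratio of Renilla over firefly light, expressed relative to that plate's average ratio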. Units: stable assay Renilla, run 1 in luminescence; stable assay firefly, run 1 in luminescence. Call rule: 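First-pass picks had plate-scaled ratios over 1.5 for the siRNA assay, over 1.6 for the miRNA assay, or under 0.6; two distinct dsRNAs had to score alike on retest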.
The deposit covers about 23,000 reagents; shown is a random part of those that have a named target and a result. In the full data, 199 (0.86%) were called active. 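Plate-scaled ratios behind the calls are not deposited; printed light signals are raw; many rows marked increased or decreased are still called inactive.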 No sequences are given here. Not stated in the record: the direction of the score.

With knock-down of CG14483 [DRSC06455] the results were stable assay Renilla, run 1 = 5431; stable assay firefly, run 1 = 3.39e5; inactive. Silencing of CG1273 [DRSC08291] came out at: stable assay Renilla, run 1 = 6702; stable assay firefly, run 1 = 4.10e5; inactive. With knock-down of NimC4 [DRSC01945], the screen gave stable assay Renilla, run 1 = 7164; stable assay firefly, run 1 = 4.19e5; inactive. For CG4891 [DRSC01936], the entry reads stable assay Renilla, run 1 = 2.92e5; stable assay firefly, run 1 = 1.34e6; inactive.

Targets listed so far whose target name begins with C or c:
CG14483 [DRSC06455] | stable assay Renilla, run 1: 5431; stable assay firefly, run 1: 3.39e5; Outcome: inactive
CG1273 [DRSC08291] | stable assay Renilla, run 1: 6702; stable assay firefly, run 1: 4.10e5; Outcome: inactive
CG4891 [DRSC01936] | stable assay Renilla, run 1: 2.92e5; stable assay firefly, run 1: 1.34e6; Outcome: inactive

Next entries follow:
obst-I [DRSC08339] showed stable assay Renilla, run 1 = 9723; stable assay firefly, run 1 = 2.87e5; inactive. Silencing of CG46491 [DRSC06565] came out at: stable assay Renilla, run 1 = 16081; stable assay firefly, run 1 = 4.99e5; inactive. CG46491 [DRSC06566] scored stable assay Renilla, run 1 = 6632; stable assay firefly, run 1 = 3.44e5; inactive. CG15262 [DRSC01975] showed stable assay Renilla, run 1 = 8046; stable assay firefly, run 1 = 4.76e5; inactive. SPH93 [DRSC02978] gave stable assay Renilla, run 1 = 7695; stable assay firefly, run 1 = 4.42e5; inactive. Pura [DRSC08891] scored stable assay Renilla, run 1 = 4535; stable assay firefly, run 1 = 3.43e5; inactive.

Pura [DRSC10862] gave stable assay Renilla, run 1 = 6103; stable assay firefly, run 1 = 3.73e5; inactive. Knock-down of Pura [DRSC10864] came out at: stable assay Renilla, run 1 = 5862; stable assay firefly, run 1 = 3.29e5; inactive. Depletion of Pura [DRSC10865] gave: stable assay Renilla, run 1 = 6199; stable assay firefly, run 1 = 3.59e5; inactive. Silencing of Pura [DRSC10866] resulted in: stable assay Renilla, run 1 = 5135; stable assay firefly, run 1 = 3.53e5; inactive.
